Data on 1 molecule can be found in patent US20240424125A1.

The target of the assay is T1, COL6A2 isoform 2C2A (human) (UniProt P12110).
T1 sequence (looked up): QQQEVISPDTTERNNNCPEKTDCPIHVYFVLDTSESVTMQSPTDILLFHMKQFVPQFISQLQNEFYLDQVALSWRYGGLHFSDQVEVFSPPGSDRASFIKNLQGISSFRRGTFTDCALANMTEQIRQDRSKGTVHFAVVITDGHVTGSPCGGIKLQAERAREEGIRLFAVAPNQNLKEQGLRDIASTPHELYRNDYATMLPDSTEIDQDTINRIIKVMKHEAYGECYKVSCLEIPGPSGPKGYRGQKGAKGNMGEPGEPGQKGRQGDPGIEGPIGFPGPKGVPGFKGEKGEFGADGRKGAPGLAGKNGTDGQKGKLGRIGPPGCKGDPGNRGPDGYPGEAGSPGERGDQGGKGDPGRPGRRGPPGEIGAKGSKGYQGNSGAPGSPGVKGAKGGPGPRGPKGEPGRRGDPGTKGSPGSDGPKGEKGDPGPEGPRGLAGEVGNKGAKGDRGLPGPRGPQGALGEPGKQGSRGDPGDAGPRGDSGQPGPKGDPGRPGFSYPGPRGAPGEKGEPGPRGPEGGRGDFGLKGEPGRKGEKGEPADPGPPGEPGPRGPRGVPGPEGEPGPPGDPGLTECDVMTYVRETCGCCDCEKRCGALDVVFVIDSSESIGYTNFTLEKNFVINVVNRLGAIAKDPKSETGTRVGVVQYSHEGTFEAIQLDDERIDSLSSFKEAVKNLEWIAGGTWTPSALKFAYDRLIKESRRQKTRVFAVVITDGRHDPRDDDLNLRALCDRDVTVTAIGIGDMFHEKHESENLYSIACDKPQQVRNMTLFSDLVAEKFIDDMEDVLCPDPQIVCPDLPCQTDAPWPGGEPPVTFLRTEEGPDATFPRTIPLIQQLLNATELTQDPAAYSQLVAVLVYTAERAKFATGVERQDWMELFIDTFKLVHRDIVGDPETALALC
Nature of the assay: Retrogenix cell microarray, live cell confirmation screen; live cell screen.

No constants are given. Whether binding was seen depends on the method and setting.

B1: v35356 (antibody, human IgG1, kappa, V domains shown)
VH: EVQLLESGGGLVQPGGSLRLSCAVSGFSLSSYGVSWVRQAPGKGLEWIGAVNSGGSAYYADSFKGRSTISRDNSKNTVYLQMNSLRAEDTAVYYCARSGSGYPMDYHPIWGQGTLVTVSS
VL: DYQMTQSPSSVSASVGDRVTITCRASQSIGDWLAWYQQKPGKAPKLLIYEASTLASGVPSRFSGSGSGTDFTLTISSVQPEDAATYYCQQGYGRWHILNIFGGGTKVEVKR
On to B1, for which the binding result was “no binding (tested: 5 µg/mL)”.
